Data taken from US20240084032A1.
Results are given in words; binding and its absence hold for the method and conditions named. Binding can be weak; no strength is given.

The chains behind the UniProt entries cited, without tags or fusion partners. Where a name states a change or a piece, a line headed by the entry shows the natural chain unless it says otherwise.
UniProt Q9H5V8: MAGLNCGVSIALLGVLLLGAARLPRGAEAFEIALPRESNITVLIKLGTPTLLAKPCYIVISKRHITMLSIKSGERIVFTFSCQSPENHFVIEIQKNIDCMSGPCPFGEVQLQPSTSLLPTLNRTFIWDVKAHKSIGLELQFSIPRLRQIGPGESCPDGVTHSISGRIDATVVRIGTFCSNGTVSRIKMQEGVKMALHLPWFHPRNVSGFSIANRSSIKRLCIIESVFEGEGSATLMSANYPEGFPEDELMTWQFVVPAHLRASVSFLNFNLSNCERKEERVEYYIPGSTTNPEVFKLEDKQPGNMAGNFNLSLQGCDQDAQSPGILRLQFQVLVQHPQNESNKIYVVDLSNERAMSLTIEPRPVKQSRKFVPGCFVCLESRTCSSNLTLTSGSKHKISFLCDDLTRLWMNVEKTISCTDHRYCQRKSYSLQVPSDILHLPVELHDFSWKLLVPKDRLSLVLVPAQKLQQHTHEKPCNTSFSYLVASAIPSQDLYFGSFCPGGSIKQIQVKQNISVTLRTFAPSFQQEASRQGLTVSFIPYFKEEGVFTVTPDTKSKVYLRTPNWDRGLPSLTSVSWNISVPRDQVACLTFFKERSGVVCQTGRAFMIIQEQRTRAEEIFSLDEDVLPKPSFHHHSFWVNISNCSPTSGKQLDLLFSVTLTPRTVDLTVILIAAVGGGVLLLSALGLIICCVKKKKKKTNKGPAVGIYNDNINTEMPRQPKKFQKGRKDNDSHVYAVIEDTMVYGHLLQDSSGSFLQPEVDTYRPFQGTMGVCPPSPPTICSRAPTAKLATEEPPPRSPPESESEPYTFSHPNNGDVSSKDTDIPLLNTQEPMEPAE

Target: human CDCP1 endogenously expressed on cancer cell lines (human) (UniProt Q9H5V8)
Assay: live cell immunofluorescence on HCT116 cells

binding: binds
B1: 38E11 (antibody, human IgG1, V domains shown)
VH: EVQLLESGGGLVQPGGSLRLSCAASGFTFSNYAMNWVRQAPGKGLEWVSAISGGGGSTYYADSVKGRFTISRDNSKNTLYLQMNSLRAEDTAVYYCAKESITMVRGVMDYYGMDVWGQGTTVTVSS
VL: DIQLTQSPSFLSASVGDRVTITCRASQGISSYLAWYQQKPGKAPKLLIYAASTLQGGVPSRFSGSGSGTEFTLTISSLQPEDFATYYCQHLNRFPRTFGQGTKVEIK
